According to US20070134261A1, “Effectors of innate immunity” (priority 2001, published 2007):
For some assays here: Not every detail of the peptide structures is certain; ends, links or a residue may be inferred. Some entries share one result that the patent states for a list of compounds. No end group written: not given here.

Legend:
[1] = tested on: RAW 264.7 mouse macrophage cells; assay type: cell-based; conditions: for Inhibition of TNF-α: Peptide 20 μg/ml, 100 ng/ml E. coli 0111:B4 LPS, 6 h
[2] = tested on: whole human blood; assay: Induction of IL-8 in whole human blood (ELISA); assay type: cell-based; conditions: for IL-8: 4 hr (0 μg/ml: 85)
[3] = tested on: THP-1 cells (human monocytes); assay: Induction of IL-8 in undifferentiated THP-1 cells; assay type: cell-based; conditions: 8 hr
Procedure: The murine macrophage cell line RAW 264.7, THP-1 cells (human monocytes), a human epithelial cell line (A549), human bronchial epithelial cells (16HBEo14), and whole human blood were used. HBE cells were grown in MEM with Earle's. THP-1 cells were grown and maintained in RPMI 1640 medium. The RAW and A549 cell lines were maintained in DMEM supplemented with 10% fetal calf serum. […] DMEM was aspirated from cells grown overnight and replaced with fresh medium. After incubation of the cells with peptide, the release of chemokines into the culture supernatant was determined by ELISA (R&D Systems, Minneapolis, Minn.).

[4] = tested on: RAW macrophage cells; assay: Surface expression of IL-8RB, CXCR-4, CCR2, LFA-1 on RAW macrophage cells (flow cytometry); assay type: cell-based, mouse; conditions: LFA-1 surface expression
[5] = tested on: mouse macrophage RAW cell line; assay: Phosphorylation of MAP kinases (Western blot) in RAW cell line; assay type: cell-based
Procedure: The cells were seeded at 2.5×10^5−5×10^5 cells/ml and left overnight. They were washed once in media, serum starved in the morning (serum free media—4 hrs). The media was removed and replaced with PBS, then sat at 37° C. for 15 minutes and then brought to room temp for 15 minutes. Peptide was added (concentrations 0.1 μg/ml−50 μg/ml) or H2O and incubated 10 min. The PBS was very quickly removed and replaced with ice-cold radioimmunoprecipitation (RIPA) buffer with inhibitors (NaF, B-glycerophosphate, MOL, Vanadate, PMSF, Leupeptin Aprotinin). The plates were shaken on ice for 10-15 min or until the cells were lysed and the lysates collected. The procedure for THP-1 cells was slightly different; more cells (2×10^6) were used. They were serum starved overnight, and to stop the reaction 1 ml of ice-cold PBS was added then they sat on ice 5-10 min, were spun down then resuspended in RIPA. Protein concentrations were determined using a protein assay (Pierce, Rockford, Ill.). Cell lysates (20 μg of protein) were separated by SDS-PAGE and transferred to nitrocellulose filters. […] The freshly harvested cells were consistently >99% viable as assessed by their ability to exclude trypan blue. […] Protein content was analyzed and approximately 30 μg of each sample was loaded in a 12% SDS-PAGE gel. […] Phosphorylation was detected with phosphorylation-specific antibodies.

[6] = tested on: THP-1 human monocyte cell line; assay: Phosphorylation of MAP kinases (Western blot) in THP-1 cells; assay type: cell-based
[7] = tested on: A549 human epithelial cells; assay: Induction of chemokines (IL-8, MCP-1) in A549 cells (ELISA); assay type: cell-based; conditions: peptide 10 ug/ml, 24 hr
[8] = tested on: S. aureus; assay: Murine S. aureus infection model (CD-1 mice); assay type: in vivo, mouse; conditions: peptide 200 μg IP, 3 days; No Peptide 7.61 ± 1.7 × 10^3
Procedure: BALB/c mice were given 1×10^5 Salmonella and cationic peptide (200 μg) by intraperitoneal injection. The mice were monitored for 24 hours at which point they were euthanized, the spleen removed, homogenized and resuspended in PBS and plated on Luria Broth agar plates with Kanamycin (50 μg/ml). The plates were incubated overnight at 37° C. and counted for viable bacteria (Table 49 and 50). CD-1 mice were given 1×10^8 S. aureus in 5% porcine mucin and cationic peptide (200 μg) by intraperitoneal injection (Table 51). The mice were monitored for 3 days at which point they were euthanized, blood removed and plated for viable counts. CD-1 male mice were given 5.8×10^6 CFU EHEC bacteria and cationic peptide (200 μg) by intraperitoneal (IP) injection and monitored for 3 days (Table 52). […] Many of the cationic peptides were shown not to be directly antimicrobial as tested by the Minimum Inhibitory Concentration (MIC) assay (Table 54).

[9] = assay type: cell-based; conditions: Staphylococcus aureus, overnight, 96-well plate
[10] = tested on: human CD14+ monocytes; assay: Human 21K DNA microarrays of CD14+ monocytes from PBMC stimulated with SEQ ID NO: 7 and/or LPS (Tables 69-72); assay type: cell-based; conditions: peptide alone
[11] = tested on: human CD14+ monocytes; assay: qPCR of gene expression in human CD14+ monocytes; assay type: cell-based
[12] = tested on: human PBMC; assay: Cytokine secretion by human PBMC with SEQ ID NO: 7 with or without LPS (ELISA); assay type: cell-based
[13] = tested on: human monocytic THP-1 cells; assay: LPS-induced TNF-α secretion by THP-1 cells with SEQ ID NO: 7 (ELISA); assay type: cell-based; conditions: peptide 45 mins prior to LPS, 4 hours
[14] = tested on: human PBMC; assay: TLR agonist / cytokine induced cytokine secretion by PBMC (ELISA, multiplex bead immunoassay); assay type: cell-based; conditions: for IL-1β, Ave pg/ml: CpG −SEQ ID NO: 1
Procedure: All assays were performed in triplicate.

## RLARIVVIRVAR-NH2 [SEQ ID NO: 3]
[1]; RAW macrophage cells
  LPS-induced production of TNF-α: did not reduce
[2]; 10 μg/ml peptide
  IL-8: 70 pg/mL
[2]; 100 μg/ml peptide
  IL-8: 323 pg/mL
[3]; peptide 10 μg/ml
  IL-8: 17.2 pg/mL
[3]; peptide 50 μg/ml
  IL-8: 123.7 pg/mL
[4]
  up-regulation of LFA-1 vs control cells: 3.8 fold
[5]
  phosphorylation of ERK1/2: phosphorylation of ERK1/2
[6]
  phosphorylation of MAP kinases: caused phosphorylation of MAP kinases

## KSRIVPAIPVSLL [SEQ ID NO: 7]
[1]
  Inhibition of TNF-α: 50.6 ± 0.6%
[7]
  IL-8: 0.161 ng/mL
[8]
  CFU/ml (blood): 3.8 ± 0.24 × 10^3 CFU/ml
[9]
  MIC, S. aureus: >
[10]
  NF-κB2 expression: up-regulate NF-κB2
[11]; 4 hr of stimulation (FIG. 14)
  transcription of MCP-3, MCP-1, CXCL-1, IL-6, IL-19, IL-8: induces transcription of genes functional in immune response
[11]; FIG. 14
  expression of IL-19: induced the expression of IL-19
[11]; within 4 hours of stimulation
  LPS-induced gene expression of IL-8, IL-6, CXCL-1: suppress
[12]; human PBMC, peptide 45 mins prior to LPS, 4 hours
  suppression of LPS-induced TNF-α secretion: 30-40%
[12]; within 4 hours of stimulation
  expression of TNFα: did not induce
  secretion of IL-6 and IL-8: induce the secretion
[13]
  suppression of LPS-induced TNF-α secretion: 30-40%

## SELPGLKHPCVPGS [SEQ ID NO: 13]
[1]
  Inhibition of TNF-α: 62.4 ± 0.85%
[7]
  IL-8: 0.293 ng/mL
[2]; high concentrations (100 μg/ml)
  induction of IL-8: induce IL-8
[8]
  CFU/ml (blood): 4.83 ± 0.92 × 10^3 CFU/ml
[9]
  MIC, S. aureus: >

## TNF-α
[14]; 4 hr, TNF-α −SEQ ID NO: 1
  IL-6, Ave pg/ml: <7 pg/mL

## 5′-TCATGACGTTCCTGACGTT-3′ (chemistry not given here) [CpG, reference compound]
[14]; 4 hr
  IL-1β, Ave pg/ml: <9 pg/mL
[14]; 24 hr
  IL-1β, Ave pg/ml: <9 pg/mL

## RRARIVPAIPVARR [SEQ ID NO: 9]
[1]
  Inhibition of TNF-α: 58.7 ± 0.8%
[7]
  IL-8: 0.21 ng/mL
[8]
  CFU/ml (blood): 2.97 ± 0.25 × 10^2 CFU/ml
[9]
  MIC, S. aureus: >
